In patent US4086196A (Armour Pharmaceutical Company, priority 1975, dated 1978) one finds step yield and crude mass data, which are given here for 1 substance.

HELM strings list residues between dots; [ac] is acetyl, [am] amide, other brackets name non-standard units.

The data set in a line: general procedure: Boc solid-phase peptide synthesis; Boc-phenylalanine resin; dicyclohexylcarbodiimide; p-nitrophenyl esters for Gln and Asn.

Regarding “PEPTIDE1{S.V.S.E.I.Q.L.M.H.N.L.G.K.H.L.N.S.M.E.R.V.E.W.L.R.K.K.L.Q.D.V.H.N.F}$$$$V2.0”, the step yield (purification step, based on yield of crude peptide recovered after cleavage) turned out to be 10.5%. This substance also registered a crude mass (whole synthesis) of 1.65 g.
